No constants are given. Whether binding was seen depends on the method and setting. In cells and extracts the contact can be indirect. Sequences can lack the tags named with a protein.

The test deals with T1, ADAMTSL4 fused with EGFP (human) (UniProt Q6UY14).
T1 sequence: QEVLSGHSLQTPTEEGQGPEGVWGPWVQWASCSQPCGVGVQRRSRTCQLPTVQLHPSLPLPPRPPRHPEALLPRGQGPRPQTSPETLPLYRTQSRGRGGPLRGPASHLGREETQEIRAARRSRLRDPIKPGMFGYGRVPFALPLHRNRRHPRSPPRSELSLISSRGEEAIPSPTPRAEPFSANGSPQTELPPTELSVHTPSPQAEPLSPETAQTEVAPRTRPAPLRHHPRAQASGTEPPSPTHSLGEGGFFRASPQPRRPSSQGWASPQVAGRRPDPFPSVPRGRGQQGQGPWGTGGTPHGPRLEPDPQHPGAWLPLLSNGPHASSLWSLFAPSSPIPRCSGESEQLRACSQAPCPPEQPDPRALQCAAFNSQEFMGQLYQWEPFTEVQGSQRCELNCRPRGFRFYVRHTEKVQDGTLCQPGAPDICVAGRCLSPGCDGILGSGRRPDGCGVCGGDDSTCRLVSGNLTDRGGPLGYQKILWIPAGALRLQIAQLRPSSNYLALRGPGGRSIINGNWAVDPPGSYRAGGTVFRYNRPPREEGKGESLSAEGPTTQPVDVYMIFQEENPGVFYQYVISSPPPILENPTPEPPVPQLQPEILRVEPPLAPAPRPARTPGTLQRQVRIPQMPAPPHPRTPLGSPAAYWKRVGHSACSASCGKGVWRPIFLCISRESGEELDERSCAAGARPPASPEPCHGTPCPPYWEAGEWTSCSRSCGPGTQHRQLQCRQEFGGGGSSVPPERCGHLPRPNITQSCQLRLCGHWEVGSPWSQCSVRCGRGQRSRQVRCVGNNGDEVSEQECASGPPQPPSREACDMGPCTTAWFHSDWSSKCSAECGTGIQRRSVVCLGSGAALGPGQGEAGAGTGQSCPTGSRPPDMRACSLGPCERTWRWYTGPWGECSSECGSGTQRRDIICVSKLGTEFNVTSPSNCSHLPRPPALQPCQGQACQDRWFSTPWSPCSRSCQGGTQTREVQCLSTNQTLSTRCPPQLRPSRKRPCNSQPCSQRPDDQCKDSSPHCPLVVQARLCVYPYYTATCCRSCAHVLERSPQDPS
In words: co-IP.

Take “COL8A1 fused with mCherry (from UniProt P27658 28-744)”: the binding entry is listed as “no binding”.

(Values after article doi:10.1101/2025.11.03.686242.)
